From article PMC6357195
These are yes or no findings as the source states them, for the method shown. Binding seen in cells or lysates may run through a third protein. Binding can be weak; no strength is given. Sequences can lack the tags named with a protein.

Target: T1, tGFP-tagged PCDHB13 (protocadherin-β13) (human) (UniProt Q9Y5F0)
T1 sequence: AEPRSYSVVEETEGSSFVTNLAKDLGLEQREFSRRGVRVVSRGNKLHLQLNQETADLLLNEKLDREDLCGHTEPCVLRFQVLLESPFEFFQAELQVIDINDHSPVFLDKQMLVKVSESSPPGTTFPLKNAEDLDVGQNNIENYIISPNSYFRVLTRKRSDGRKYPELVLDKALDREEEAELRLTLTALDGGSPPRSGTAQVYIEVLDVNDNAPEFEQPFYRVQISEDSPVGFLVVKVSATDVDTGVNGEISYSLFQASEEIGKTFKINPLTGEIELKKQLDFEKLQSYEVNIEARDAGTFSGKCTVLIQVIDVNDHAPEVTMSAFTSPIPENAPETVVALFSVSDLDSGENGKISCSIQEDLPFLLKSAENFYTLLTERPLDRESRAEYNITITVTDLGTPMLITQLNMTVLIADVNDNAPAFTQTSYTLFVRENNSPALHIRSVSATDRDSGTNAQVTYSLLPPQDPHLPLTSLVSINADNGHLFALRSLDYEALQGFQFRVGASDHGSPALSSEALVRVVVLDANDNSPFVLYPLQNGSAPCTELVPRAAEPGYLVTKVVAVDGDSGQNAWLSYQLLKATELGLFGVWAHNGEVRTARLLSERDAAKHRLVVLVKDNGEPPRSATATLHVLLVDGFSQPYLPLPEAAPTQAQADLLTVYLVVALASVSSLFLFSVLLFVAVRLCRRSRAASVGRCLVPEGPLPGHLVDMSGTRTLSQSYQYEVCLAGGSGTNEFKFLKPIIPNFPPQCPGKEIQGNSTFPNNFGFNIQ
Assay: co-IP; 500 μg lysate of A549 cells overexpressing PCDHB13-tGFP or control tGFP; IP with anti-tGFP magnetic beads; eluates blotted for PCDHB13 and α-Tubulin

## α-Tubulin (human (endogenous in A549))
  binding: binds
